{"source": "the supplement of paper PMC6411743", "assay_in_all_cases": "NP40-soluble protein abundance relative to vehicle (solubility fold change) (ratio); higher = more soluble protein in presence of AMP-PNP", "key": {"[1]": {"target": "T1, PREB (UniProt Q9HCU5)", "T1 sequence (whole entry)": "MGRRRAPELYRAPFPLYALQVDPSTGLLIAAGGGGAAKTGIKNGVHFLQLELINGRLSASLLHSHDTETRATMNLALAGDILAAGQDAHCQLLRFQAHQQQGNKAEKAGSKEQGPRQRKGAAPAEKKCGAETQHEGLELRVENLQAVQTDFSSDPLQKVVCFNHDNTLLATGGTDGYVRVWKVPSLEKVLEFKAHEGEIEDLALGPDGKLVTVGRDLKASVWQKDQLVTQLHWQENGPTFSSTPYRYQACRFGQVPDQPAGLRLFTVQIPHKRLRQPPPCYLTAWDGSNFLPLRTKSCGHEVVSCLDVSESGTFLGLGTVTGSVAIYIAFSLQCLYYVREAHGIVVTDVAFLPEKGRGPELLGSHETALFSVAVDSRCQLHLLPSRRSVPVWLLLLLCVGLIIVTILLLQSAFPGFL", "in_short": "(§1)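 Crude Jurkat lysate, prepared by Dounce homogenisation, was exposed to eight concentrations from 0.1 to 10 mM for 10 min at room temperature and then 3 min at 37 °C. Solubilisation used 0.8% NP40 with benzonase for 60 min at 4 °C, followed by ultracentrifugation and TMT labelling of the supernatant for LC-MS/MS. After vsn normalisation of intensities, each value is the fold change against the detergent-processed vehicle within each replicate, across three independent experiments.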"}, "[2]": {"target": "T2, PRKRIP1 (UniProt Q9H875)", "T2 sequence (whole entry)": "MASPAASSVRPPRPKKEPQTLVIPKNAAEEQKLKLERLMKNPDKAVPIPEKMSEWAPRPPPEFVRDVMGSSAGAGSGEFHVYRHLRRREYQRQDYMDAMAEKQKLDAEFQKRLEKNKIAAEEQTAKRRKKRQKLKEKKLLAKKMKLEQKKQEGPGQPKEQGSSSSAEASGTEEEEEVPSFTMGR", "in_short": "as §1"}, "[3]": {"target": "T3, RAB3GAP2 (UniProt Q9H2M9)", "T3 sequence (whole entry)": "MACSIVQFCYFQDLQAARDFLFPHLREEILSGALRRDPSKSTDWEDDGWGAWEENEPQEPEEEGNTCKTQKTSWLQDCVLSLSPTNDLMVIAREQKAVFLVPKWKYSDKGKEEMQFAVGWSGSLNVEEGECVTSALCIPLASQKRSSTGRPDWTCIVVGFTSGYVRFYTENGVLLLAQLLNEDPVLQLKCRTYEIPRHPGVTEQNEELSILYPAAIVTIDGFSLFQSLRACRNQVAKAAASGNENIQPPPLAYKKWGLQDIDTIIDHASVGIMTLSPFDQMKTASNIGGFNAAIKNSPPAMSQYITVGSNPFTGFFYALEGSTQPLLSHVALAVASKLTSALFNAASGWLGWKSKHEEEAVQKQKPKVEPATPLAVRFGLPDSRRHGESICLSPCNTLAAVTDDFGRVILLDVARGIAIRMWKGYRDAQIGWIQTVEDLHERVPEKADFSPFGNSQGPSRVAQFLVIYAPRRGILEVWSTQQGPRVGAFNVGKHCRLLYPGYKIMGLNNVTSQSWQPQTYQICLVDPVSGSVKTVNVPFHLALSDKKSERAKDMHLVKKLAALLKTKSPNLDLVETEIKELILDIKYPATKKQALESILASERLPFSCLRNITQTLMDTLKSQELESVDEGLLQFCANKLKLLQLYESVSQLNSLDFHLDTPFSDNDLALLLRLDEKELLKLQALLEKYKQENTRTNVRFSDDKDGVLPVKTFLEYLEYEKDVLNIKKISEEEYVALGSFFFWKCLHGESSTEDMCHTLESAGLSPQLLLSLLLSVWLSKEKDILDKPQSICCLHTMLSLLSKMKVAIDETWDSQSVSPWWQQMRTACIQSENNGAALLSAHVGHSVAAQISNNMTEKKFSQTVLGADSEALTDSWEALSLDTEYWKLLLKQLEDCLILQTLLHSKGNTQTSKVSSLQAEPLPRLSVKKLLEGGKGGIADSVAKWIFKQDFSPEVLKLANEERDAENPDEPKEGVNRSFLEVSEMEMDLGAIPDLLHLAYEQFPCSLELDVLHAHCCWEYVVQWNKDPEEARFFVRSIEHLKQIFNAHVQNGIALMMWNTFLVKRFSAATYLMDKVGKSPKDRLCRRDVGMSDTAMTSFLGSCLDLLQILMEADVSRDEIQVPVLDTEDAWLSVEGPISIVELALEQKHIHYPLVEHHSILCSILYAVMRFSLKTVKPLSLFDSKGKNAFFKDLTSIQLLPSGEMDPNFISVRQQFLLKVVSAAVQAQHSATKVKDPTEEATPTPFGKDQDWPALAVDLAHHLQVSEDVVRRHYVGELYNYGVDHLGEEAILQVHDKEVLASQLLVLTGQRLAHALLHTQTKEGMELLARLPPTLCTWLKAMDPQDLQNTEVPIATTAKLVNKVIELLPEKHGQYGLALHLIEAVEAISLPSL", "in_short": "as §1"}, "[4]": {"target": "T4, SMYD3 (UniProt Q9H7B4)", "T4 sequence (whole entry)": "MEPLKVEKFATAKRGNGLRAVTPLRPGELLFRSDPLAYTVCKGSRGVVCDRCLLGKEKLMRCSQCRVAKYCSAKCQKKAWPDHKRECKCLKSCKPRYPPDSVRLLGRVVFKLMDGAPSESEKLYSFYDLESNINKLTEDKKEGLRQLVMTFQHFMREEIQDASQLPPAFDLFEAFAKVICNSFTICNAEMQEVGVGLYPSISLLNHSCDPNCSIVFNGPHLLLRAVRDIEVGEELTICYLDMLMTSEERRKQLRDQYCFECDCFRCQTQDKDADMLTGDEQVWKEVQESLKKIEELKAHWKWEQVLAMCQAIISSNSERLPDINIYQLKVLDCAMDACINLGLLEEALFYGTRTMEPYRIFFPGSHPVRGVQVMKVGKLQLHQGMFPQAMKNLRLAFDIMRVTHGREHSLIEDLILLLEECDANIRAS", "in_short": "as §1"}, "[5]": {"target": "T5, UniProt Q9H078-2", "T5 sequence (whole entry)": "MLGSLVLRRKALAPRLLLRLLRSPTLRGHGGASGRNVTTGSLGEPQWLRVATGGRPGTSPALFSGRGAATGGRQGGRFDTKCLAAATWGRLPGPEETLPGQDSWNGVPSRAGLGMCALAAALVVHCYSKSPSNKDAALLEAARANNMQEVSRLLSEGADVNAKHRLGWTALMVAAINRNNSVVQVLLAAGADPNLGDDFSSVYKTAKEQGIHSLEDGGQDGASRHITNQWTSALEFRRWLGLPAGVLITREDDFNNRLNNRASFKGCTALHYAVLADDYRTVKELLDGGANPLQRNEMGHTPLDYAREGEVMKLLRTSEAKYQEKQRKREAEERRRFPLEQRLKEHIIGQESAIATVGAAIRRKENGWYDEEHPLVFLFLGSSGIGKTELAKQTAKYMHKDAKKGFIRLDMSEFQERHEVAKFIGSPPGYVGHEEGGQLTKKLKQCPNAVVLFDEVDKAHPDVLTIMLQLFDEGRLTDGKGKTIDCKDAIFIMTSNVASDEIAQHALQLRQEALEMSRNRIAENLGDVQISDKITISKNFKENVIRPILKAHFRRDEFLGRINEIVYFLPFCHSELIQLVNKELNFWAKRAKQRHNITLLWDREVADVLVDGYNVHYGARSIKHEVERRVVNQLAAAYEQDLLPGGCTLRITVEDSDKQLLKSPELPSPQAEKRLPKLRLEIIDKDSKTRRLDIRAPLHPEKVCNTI", "in_short": "as §1"}}, "note": "± gives the standard deviation of the averaged measurements. The entries are a selection whose mix differs from that of the whole data set.", "data": [{"smiles": "Nc1ncnc2c1ncn2[C@@H]1O[C@H](COP(=O)(O)OP(=O)(O)NP(=O)(O)O)[C@@H](O)[C@H]1O", "note": "[adenylyl imidodiphosphate]", "values": [{"measurement": "NP40-soluble protein abundance", "setting": "[1]; concentration: 1mM", "value": "1.03 ± 0.028"}, {"measurement": "NP40-soluble protein abundance", "setting": "[1]; concentration: 2mM", "value": "1.18 ± 0.23"}, {"measurement": "NP40-soluble protein abundance", "setting": "[1]; concentration: 4mM", "value": "1.04 ± 0.073"}, {"measurement": "NP40-soluble protein abundance", "setting": "[1]; concentration: 6mM", "value": "1 ± 0.066"}, {"measurement": "NP40-soluble protein abundance", "setting": "[1]; concentration: 8mM", "value": "1.01 ± 0.065"}, {"measurement": "NP40-soluble protein abundance", "setting": "[1]; concentration: 10mM", "value": "1.02 ± 0.098"}, {"measurement": "NP40-soluble protein abundance", "setting": "[2]; concentration: 1mM", "value": "1.03 ± 0.053"}, {"measurement": "NP40-soluble protein abundance", "setting": "[2]; concentration: 2mM", "value": "1.14 ± 0.12"}, {"measurement": "NP40-soluble protein abundance", "setting": "[2]; concentration: 4mM", "value": "1.1 ± 0.11"}, {"measurement": "NP40-soluble protein abundance", "setting": "[2]; concentration: 6mM", "value": "1.14 ± 0.073"}, {"measurement": "NP40-soluble protein abundance", "setting": "[2]; concentration: 8mM", "value": "1.16 ± 0.1"}, {"measurement": "NP40-soluble protein abundance", "setting": "[2]; concentration: 10mM", "value": "1.15 ± 0.15"}, {"measurement": "NP40-soluble protein abundance", "setting": "[3]; concentration: 1mM", "value": "0.992 ± 0.021"}, {"measurement": "NP40-soluble protein abundance", "setting": "[3]; concentration: 2mM", "value": "0.928 ± 0.073"}, {"measurement": "NP40-soluble protein abundance", "setting": "[3]; concentration: 4mM", "value": "0.97 ± 0.012"}, {"measurement": "NP40-soluble protein abundance", "setting": "[3]; concentration: 6mM", "value": "0.933 ± 0.018"}, {"measurement": "NP40-soluble protein abundance", "setting": "[3]; concentration: 8mM", "value": "0.9368 ± 0.0065"}, {"measurement": "NP40-soluble protein abundance", "setting": "[3]; concentration: 10mM", "value": "0.9065 ± 0.0063"}, {"measurement": "NP40-soluble protein abundance", "setting": "[4]; concentration: 1mM", "value": "0.97 ± 0.051"}, {"measurement": "NP40-soluble protein abundance", "setting": "[4]; concentration: 2mM", "value": "0.923 ± 0.03"}, {"measurement": "NP40-soluble protein abundance", "setting": "[4]; concentration: 4mM", "value": "0.935 ± 0.045"}, {"measurement": "NP40-soluble protein abundance", "setting": "[4]; concentration: 6mM", "value": "0.872 ± 0.021"}, {"measurement": "NP40-soluble protein abundance", "setting": "[4]; concentration: 8mM", "value": "0.8724 ± 0.0033"}, {"measurement": "NP40-soluble protein abundance", "setting": "[4]; concentration: 10mM", "value": "0.829 ± 0.02"}, {"measurement": "NP40-soluble protein abundance", "setting": "[5]; concentration: 1mM", "value": "0.999 ± 0.04"}, {"measurement": "NP40-soluble protein abundance", "setting": "[5]; concentration: 2mM", "value": "0.962 ± 0.056"}, {"measurement": "NP40-soluble protein abundance", "setting": "[5]; concentration: 4mM", "value": "1.01 ± 0.061"}, {"measurement": "NP40-soluble protein abundance", "setting": "[5]; concentration: 6mM", "value": "1 ± 0.058"}, {"measurement": "NP40-soluble protein abundance", "setting": "[5]; concentration: 8mM", "value": "0.992 ± 0.036"}, {"measurement": "NP40-soluble protein abundance", "setting": "[5]; concentration: 10mM", "value": "0.997 ± 0.063"}]}]}
